Source: paper PMC6770856
These are yes or no findings as the source states them, for the method shown. Some entries that bind do so weakly or less than the wild type. One block for each binder: values may come before it.

Amino acid sequences for entries named in this document (tags omitted). Residues count along the entry.
UniProt Q6Z156, residues 242-388: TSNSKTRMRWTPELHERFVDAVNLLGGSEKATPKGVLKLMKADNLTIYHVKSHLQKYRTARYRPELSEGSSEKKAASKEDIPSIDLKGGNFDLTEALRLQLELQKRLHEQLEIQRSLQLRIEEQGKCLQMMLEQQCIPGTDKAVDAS

Legend:
[1] = substrate: C terminus of OsPHR2 containing MYB-CC domains (242-388 aa, PHR-147) (rice) (UniProt Q6Z156); experiment: two-hybrid; Y2H assay in yeast; vectors, media and orientation not told in the text (Figures S2 and S4)
PIF1 (Arabidopsis) = molecular target: T1, PIF1 (Arabidopsis) (UniProt Q8GZM7); experiment: as above
T1 sequence: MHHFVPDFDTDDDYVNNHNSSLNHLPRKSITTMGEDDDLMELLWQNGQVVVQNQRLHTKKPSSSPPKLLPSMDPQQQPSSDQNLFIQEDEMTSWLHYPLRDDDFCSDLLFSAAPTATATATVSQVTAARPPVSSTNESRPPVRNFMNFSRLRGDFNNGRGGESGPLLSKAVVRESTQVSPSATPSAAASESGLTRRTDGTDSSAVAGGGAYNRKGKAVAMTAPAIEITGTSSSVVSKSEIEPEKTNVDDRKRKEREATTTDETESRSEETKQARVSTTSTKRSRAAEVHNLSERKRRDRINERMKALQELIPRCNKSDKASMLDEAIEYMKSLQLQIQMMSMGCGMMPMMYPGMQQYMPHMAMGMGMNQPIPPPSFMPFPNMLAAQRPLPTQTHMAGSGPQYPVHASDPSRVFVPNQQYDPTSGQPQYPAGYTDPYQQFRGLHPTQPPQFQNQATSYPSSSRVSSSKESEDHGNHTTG

binding [1]: no binding
binding (PIF1 (Arabidopsis)): binds
B1: HFR1 (protein, UniProt Q9FE22 1-292)
chain: MSNNQAFMELGWRNDVGSLAVKDQGMMSERARSDEDRLINGLKWGYGYFDHDQTDNYLQIVPEIHKEVENAKEDLLVVVPDEHSETDDHHHIKDFSERSDHRFYLRNKHENPKKRRIQVLSSDDESEEFTREVPSVTRKGSKRRRRDEKMSNKMRKLQQLVPNCHKTDKVSVLDKTIEYMKNLQLQLQMMSTVGVNPYFLPATLGFGMHNHMLTAMASAHGLNPANHMMPSPLIPALNWPLPPFTNISFPHSSSQSLFLTTSSPASSPQSLHGLVPYFPSFLDFSSHAMRRL

binding [1]: binds weakly
binding (PIF1 (Arabidopsis)): no binding
B2: OsSPX4 (protein, UniProt Q10B79 1-320)
chain: MKFGKDFRSHLEETLPAWRDKYLAYKSLKKLIKNLPPDGDPPPVAAAAEVPAGDGDGDGGIALGNWFARVLDMELQKLNDFYIEREEWYVIRLQVLKERIERVKAKKNGAFTSKSEFTEEMLEIRKAFVIIHGEMILLQTYSSLNFAGLVKILKKYDKRTGGLLSLPFTQRARHQPFFTTEPLTRLVRECEANLELLFPIEAEVLESASSSAKLQPQNDDAASHDPASSVDVETSDVYRSTLAAMKAIQGLRKASSTYNPLSLARFFHGEDGEACSGAITSESDSYSDSQIEDAEDDDKEVQSREQNTAQNAAEGQPRDE
